Results from patent US12491217B2, “Compositions and methods for promoting healthy neural development in an unborn baby” (The Regents of the University of California, priority 2019, dated 2025).

Test: Metabolomics of fetal brain at E14.5
Assay type: in vivo, C57Bl/6J mice
Conditions: E14.5 fetal brain metabolite level; for fold of change ABX/SPF: ANOVA contrast ABX vs SPF; for fold of change GF/ABX: ANOVA contrast GF vs ABX; for fold of change GF/SPF: ANOVA contrast GF vs SPF; for fold of change GF/Sp: ANOVA contrast GF vs Sp; for fold of change Sp/ABX: ANOVA contrast Sp vs ABX; for fold of change Sp/SPF: ANOVA contrast Sp vs SPF

| Structure (SMILES) | fold of change ABX/SPF | fold of change GF/ABX | fold of change GF/SPF | fold of change GF/Sp | fold of change Sp/ABX | fold of change Sp/SPF |
| --- | --- | --- | --- | --- | --- | --- |
| CCC=CCC=CCC=CCC=CCC=CCC=CCCC(=O)OC(COC(=O)CCCCCCCC=CCCCCCCCC)COP(=O)([O-])OCC[N+](C)(C)C (stereo not drawn) [compound 1902] | 0.86 | 0.77 | 0.67 | 0.89 | 0.86 | 0.75 |
| CCCCC/C=C\C/C=C\CCCCCCCC(=O)OCC(COP(=O)([O-])OCC[N+](C)(C)C)OC(=O)CCCCCCC/C=C\C/C=C\CCCCC (stereo not drawn) [compound 1903] | 0.93 | 1.02 | 0.94 | 1.73 | 0.59 | 0.54 |
| CCCCC/C=C\C/C=C\C/C=C\C/C=C\CCCC(=O)OC(COC(=O)CCCCCCC/C=C\C/C=C\CCCCC)COP(=O)([O-])OCC[N+](C)(C)C (stereo not drawn) [compound 1907] | 1.00 | 1.00 | 0.99 | 1.28 | 0.78 | 0.78 |
| CCCCCCCCCCCCCCCC(=O)OC[C@H](COP(=O)(O)OCCN)OC(=O)CCCCCCCCCCCCCCC [compound 1945] | 0.90 | 0.95 | 0.85 | 0.95 | 1.00 | 0.90 |
| CCCCCCCCCCCCCCCCCC(=O)OC(COC(=O)CCCCCCCCCCCCCCC)COP(=O)(O)OCCN (stereo not drawn) [compound 1948] | 0.78 | 0.98 | 0.76 | 0.89 | 1.10 | 0.86 |
| CCCCCCCC/C=C\CCCCCCCC(=O)O[C@H](COC(=O)CCCCCCCCCCCCCCC)COP(=O)(O)OCCN [compound 1949] | 0.91 | 0.90 | 0.82 | 0.94 | 0.97 | 0.88 |
| CCCCC/C=C\C/C=C\CCCCCCCC(=O)OC(COC(=O)CCCCCCCCCCCCCCC)COP(=O)(O)OCCN (stereo not drawn) [compound 1950] | 1.10 | 0.90 | 0.99 | 1.12 | 0.81 | 0.89 |
| CCCCCC=CCC=CCC=CCC=CCCCC(=O)OC(COC(=O)CCCCCCCCCCCCCCC)COP(=O)(O)OCCN (stereo not drawn) [compound 1953] | 0.92 | 0.93 | 0.86 | 1.03 | 0.91 | 0.83 |
| CC/C=C\C/C=C\C/C=C\C/C=C\C/C=C\C/C=C\CCC(=O)OC(COC(=O)CCCCCCCCCCCCCCC)COP(=O)(O)OCCN (stereo not drawn) [compound 1955] | 0.94 | 0.79 | 0.74 | 0.88 | 0.90 | 0.85 |
| CCCCCCCC/C=C\CCCCCCCC(=O)O[C@H](COC(=O)CCCCCCCCCCCCCCCCC)COP(=O)(O)OCCN [compound 1962] | 0.85 | 0.89 | 0.75 | 0.89 | 0.99 | 0.84 |
| CCCCCC=CCC=CCC=CCC=CCCCC(=O)OC(COC(=O)CCCCCCCCCCCCCCCCC)COP(=O)(O)OCCN (stereo not drawn) [compound 1970] | 0.90 | 0.90 | 0.81 | 0.94 | 0.95 | 0.85 |
| CC/C=C\C/C=C\C/C=C\C/C=C\C/C=C\C/C=C\CCC(=O)O[C@H](COC(=O)CCCCCCCCCCCCCCCCC)COP(=O)(O)OCCN [compound 1974] | 0.88 | 0.79 | 0.69 | 0.87 | 0.90 | 0.80 |
| CCCCCCCCC=CCCCCCCCC(=O)OCC(COP(=O)(O)OCCN)OC(=O)CCCCCCCC=CCCCCCCCC (stereo not drawn) [compound 1975] | 1.05 | 0.89 | 0.94 | 1.05 | 0.85 | 0.89 |
| CCCCC/C=C\C/C=C\CCCCCCCC(=O)O[C@H](COC(=O)CCCCCCC/C=C\CCCCCCCC)COP(=O)(O)OCCN [compound 1976] | 1.18 | 0.90 | 1.06 | 1.38 | 0.66 | 0.77 |
| CCCCC/C=C\C/C=C\C/C=C\C/C=C\CCCC(=O)O[C@H](COC(=O)CCCCCCC/C=C\CCCCCCCC)COP(=O)(O)OCCN [compound 1979] | 1.06 | 0.90 | 0.95 | 1.09 | 0.82 | 0.87 |
| CC/C=C\C/C=C\C/C=C\C/C=C\C/C=C\C/C=C\CCC(=O)O[C@H](COC(=O)CCCCCCC/C=C\CCCCCCCC)COP(=O)(O)OCCN [compound 1982] | 0.99 | 0.77 | 0.76 | 0.87 | 0.88 | 0.86 |
| CCCCC/C=C\C/C=C\C/C=C\C/C=C\CCCC(=O)OC(COC(=O)CCCCCCC/C=C\C/C=C\CCCCC)COP(=O)(O)OCCN (stereo not drawn) [compound 1985] | 1.15 | 0.92 | 1.06 | 1.42 | 0.65 | 0.74 |
| CCCCCCCCC=CCCCCCCCC(=O)OC(COC(=O)CCCCCCCCCCCCCCC)COP(=O)(O)OCC(N)C(=O)O (stereo not drawn) [compound 2016] | 0.93 | 0.99 | 0.92 | 1.02 | 0.97 | 0.90 |
| CCCCCCCC/C=C\CCCCCCCC(=O)OC(COC(=O)CCCCCCCCCCCCCCCCC)COP(=O)(O)OCC(N)C(=O)O (stereo not drawn) [compound 2021] | 0.91 | 0.97 | 0.88 | 0.97 | 1.00 | 0.92 |
| CCCCC/C=C\C/C=C\C/C=C\C/C=C\CCCC(=O)O[C@H](COC(=O)CCCCCCCCCCCCCCCCC)COP(=O)(O)OC[C@H](N)C(=O)O [compound 2024] | 0.91 | 0.93 | 0.85 | 0.99 | 0.94 | 0.86 |
| CCCCCCCC/C=C\CCCCCCCC(=O)OC(COC(=O)CCCCCCCCCCCCCCC)COP(=O)(O)OCC(O)CO (stereo not drawn) [compound 2034] | 0.72 | 1.01 | 0.73 | 0.86 | 1.17 | 0.84 |
| CCCCC/C=C\C/C=C\C/C=C\C/C=C\CCCC(=O)O[C@H](COC(=O)CCCCCCCCCCCCCCC)COP(=O)(O)OC1C(O)C(O)C(O)C(O)C1O (stereo partly drawn) [compound 2052] | 0.83 | 0.85 | 0.71 | 0.91 | 0.93 | 0.77 |
| CCCCC/C=C\C/C=C\C/C=C\C/C=C\CCCC(=O)O[C@H](COC(=O)CCCCCCCCCCCCCCCCC)COP(=O)(O)OC1C(O)C(O)C(O)C(O)C1O (stereo partly drawn) [compound 2067] | 0.83 | 0.92 | 0.77 | 0.96 | 0.96 | 0.80 |
| CCCCC/C=C\C/C=C\C/C=C\C/C=C\CCCC(=O)OC(COC(=O)CCCCCCC/C=C\CCCCCCCC)COP(=O)(O)OC1C(O)C(O)C(O)C(O)C1O (stereo not drawn) [compound 2072] | 0.91 | 0.81 | 0.74 | 0.97 | 0.84 | 0.76 |
| CCCCCCCCCCCCCCCC(=O)OCC(O)COP(=O)([O-])OCC[N+](C)(C)C (stereo not drawn) [compound 2105] | 0.56 | 1.16 | 0.65 | 0.78 | 1.49 | 0.83 |
| CCCCCCCCCCCCCCCC(=O)OC(CO)COP(=O)([O-])OCC[N+](C)(C)C (stereo not drawn) [compound 2106] | 0.61 | 1.25 | 0.76 | 0.83 | 1.50 | 0.91 |
| CCCCCCC=CCCCCCCCC(=O)OCC(O)COP(=O)([O-])OCC[N+](C)(C)C (stereo not drawn) [compound 2107] | 0.65 | 1.17 | 0.75 | 0.86 | 1.36 | 0.88 |
| CCCCCCCCCCCCCCCCCC(=O)OCC(O)COP(=O)([O-])OCC[N+](C)(C)C (stereo not drawn) [compound 2113] | 0.56 | 1.28 | 0.71 | 0.80 | 1.60 | 0.89 |
